# In US20030152512A1 (priority 2001, published 2003):
# Experiment: general procedure: peptide synthesis; Oxime resin (0.96 mmol/g, or Novabiochem 0.62 mmol/g); HBTU, TBTU
substance,measurement,setting,value
"3,5-bis(Asp(OtBu)-aminomethyl)benzoyl-D-Val-N-Me-Arg-Gly-OH",crude HPLC purity,"late stage modification step, Analytical HPLC Method B",area %=98%
"3,5-bis(Cbz-Asp(OtBu)-aminomethyl)benzoyl-D-Val-N-Me-Arg-Gly-OBzl",step yield,coupling step,22%
same,final HPLC purity,"coupling step, Analytical HPLC Method C",area %=86.5%
cyclo(N-Me-Arg(Tos)-Gly-Asp(OtBu)-5-(Asp(OtBu)-aminomethyl)Mamb-D-val),cyclisation yield,cyclisation step,58%
same,final HPLC purity,"cyclisation step, Analytical HPLC Method B",area %=99%
cyclo(N-Me-Arg-Gly-Asp-5-(Asp-aminomethyl)Mamb-D-val),step yield,late stage modification step,55%
cyclo{N-Me-Arg-Gly-Asp-Mamb-D-Lys([2-[[[5-[carbonyl]-2-pyridinyl]hydrazono]methyl]-benzenesulfonic acid])},conjugation yield,conjugation step,49%
same,final HPLC purity,"conjugation step, Analytical HPLC Method A",area %=89%
